Assay results taken from PMC10848721.

Protein sequences, listed by entry. Tags and fused reporters are not part of them. Lines headed by an entry give the natural chain unless they say otherwise; changes in a name come on top.
UniProt Q86T03: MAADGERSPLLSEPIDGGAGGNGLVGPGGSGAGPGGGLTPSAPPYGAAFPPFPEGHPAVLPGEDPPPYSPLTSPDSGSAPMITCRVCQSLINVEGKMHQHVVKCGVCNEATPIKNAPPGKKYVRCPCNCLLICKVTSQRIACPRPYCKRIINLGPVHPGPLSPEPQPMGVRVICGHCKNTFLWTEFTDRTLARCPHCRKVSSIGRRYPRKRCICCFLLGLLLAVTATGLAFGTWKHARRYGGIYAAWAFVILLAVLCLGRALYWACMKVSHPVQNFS

What was measured:
Assay in all cases: co-IP; HaloLink Resin IP of Halo-TMEM55B (full-length, truncated or point mutants) from lysates of transiently transfected HEK293 cells, 1 to 2 hours; washed with 50 mM tris-HCl pH 7.5, 150 mM NaCl; quantitative immunoblot
TMEM55B A117S = TMEM55B A117S (UniProt Q86T03)
TMEM55B L137A = TMEM55B L137A (UniProt Q86T03)
TMEM55B V108T = TMEM55B V108T (UniProt Q86T03)

Measured: binding

B1: RILPL1 (found with overexpressed TMEM55B or TMEM55A) (protein, UniProt Q5EBL4 1-403)
chain: MEEERGSALAAESALEKNVAELTVMDVYDIASLVGHEFERVIDQHGCEAIARLMPKVVRVLEILEVLVSRHHVAPELDELRLELDRLRLERMDRIEKERKHQKELELVEDVWRGEAQDLLSQIAQLQEENKQLMTNLSHKDVNFSEEEFQKHEGMSERERQVMKKLKEVVDKQRDEIRAKDRELGLKNEDVEALQQQQTRLMKINHDLRHRVTVVEAQGKALIEQKVELEADLQTKEQEMGSLRAELGKLRERLQGEHSQNGEEEPETEPVGEESISDAEKVAMDLKDPNRPRFTLQELRDVLHERNELKSKVFLLQEELAYYKSEEMEEENRIPQPPPIAHPRTSPQPESGIKRLFSFFSRDKKRLANTQRNVHIQESFGQWANTHRDDGYTEQGQEALQHL
binds: all assays above

No constants are given. Whether binding was seen depends on the method and setting. Binding seen in cells or lysates may run through a third protein. Binding calls can cover weak binding; strength is not graded here.
